Test results: article PMC3633926

Amino acid sequences for entries named in this document (tags omitted).
UniProt P43694, whole entry G150W: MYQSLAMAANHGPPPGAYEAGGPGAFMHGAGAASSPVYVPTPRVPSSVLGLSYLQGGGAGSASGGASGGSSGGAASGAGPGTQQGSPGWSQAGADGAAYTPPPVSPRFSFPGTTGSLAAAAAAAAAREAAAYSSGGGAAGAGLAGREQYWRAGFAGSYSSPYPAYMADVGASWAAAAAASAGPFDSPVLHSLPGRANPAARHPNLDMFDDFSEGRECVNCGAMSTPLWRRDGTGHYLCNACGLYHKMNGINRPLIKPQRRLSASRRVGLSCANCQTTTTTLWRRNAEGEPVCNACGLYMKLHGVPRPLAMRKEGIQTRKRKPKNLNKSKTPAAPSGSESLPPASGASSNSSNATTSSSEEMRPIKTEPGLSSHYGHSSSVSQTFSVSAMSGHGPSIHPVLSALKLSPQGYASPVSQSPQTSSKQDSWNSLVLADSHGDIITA
UniProt P43694, whole entry A74D: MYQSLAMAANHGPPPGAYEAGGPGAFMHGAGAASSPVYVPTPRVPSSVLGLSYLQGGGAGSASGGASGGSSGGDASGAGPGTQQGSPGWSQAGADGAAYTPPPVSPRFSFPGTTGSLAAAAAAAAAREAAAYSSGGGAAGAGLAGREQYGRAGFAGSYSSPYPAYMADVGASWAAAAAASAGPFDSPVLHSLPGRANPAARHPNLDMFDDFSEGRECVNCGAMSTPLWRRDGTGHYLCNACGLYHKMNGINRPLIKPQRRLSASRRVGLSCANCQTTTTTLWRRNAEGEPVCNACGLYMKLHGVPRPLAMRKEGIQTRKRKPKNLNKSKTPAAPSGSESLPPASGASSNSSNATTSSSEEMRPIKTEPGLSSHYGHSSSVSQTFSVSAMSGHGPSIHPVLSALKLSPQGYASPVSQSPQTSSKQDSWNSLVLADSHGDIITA
UniProt P43694, whole entry T280M: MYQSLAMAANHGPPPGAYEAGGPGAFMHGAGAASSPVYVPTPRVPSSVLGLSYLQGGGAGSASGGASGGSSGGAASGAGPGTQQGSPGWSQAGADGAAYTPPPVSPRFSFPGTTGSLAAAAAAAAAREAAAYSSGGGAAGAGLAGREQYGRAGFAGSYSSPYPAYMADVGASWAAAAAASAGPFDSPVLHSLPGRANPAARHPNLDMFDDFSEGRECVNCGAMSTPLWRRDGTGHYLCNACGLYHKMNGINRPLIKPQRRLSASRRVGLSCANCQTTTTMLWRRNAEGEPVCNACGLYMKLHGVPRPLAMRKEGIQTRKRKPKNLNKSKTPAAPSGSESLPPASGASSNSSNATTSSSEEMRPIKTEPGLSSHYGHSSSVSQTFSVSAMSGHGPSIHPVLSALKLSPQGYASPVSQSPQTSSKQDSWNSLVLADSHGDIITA

What was measured:
Test in all cases: EMSA
Details in all cases: poly(dI-dC); LightShift kit 1x binding buffer, 1 ug poly(dI-dC), 2 ul nuclear extract, 1 pmol biotin probe, 20 ul, 20 min at room temperature; 6% native PAGE, 0.5x TBE; protein in a lysate after overexpression; residues 1-442; protein details: Myc; label: biotin (cold as competitor)
[1] = biological target: GATA4 G150W (Homo sapiens) (UniProt P43694)
[2] = biological target: GATA4 A74D (Homo sapiens) (UniProt P43694)
[3] = biological target: GATA4 T280M (Homo sapiens) (UniProt P43694)

Measured: binding result

GCAGTTAACTGATAATGACACTGTG (double strand) [dHAND GATA element]
binds more weakly: all assays above

The exact form of at least one protein or probe is not confirmed. Results from cells or extracts need not show a direct contact. A weaker result is weaker than the reference pair of the same experiment.
